The target in experiment [1] is geranylgeranyl protein transferase (Rattus norvegicus, UniProt P53610+Q04631). As to the kind of experiment: GGPT IC50, inhibition of geranylgeranyl protein transferase, in vitro enzyme assay (procedure of WO 95/10516). To be noted: read-out: GGPTase IC50. Here is the method: FPT IC50 (inhibition of farnesyl protein transferase, in vitro enzyme assay). and COS Cell IC50 (Cell-Based Assay) were determined following the assay procedures described in WO 95/10516, published April 20, 1995. GGPT IC50 (inhibition of geranylgeranyl protein transferase, in vitro enzyme assay), Cell Mat Assay, and anti-tumor activity (in vivo anti-tumor studies) could be determined by the assay procedures described in WO 95/10516. The disclosure of WO 95/10516 is incorporated herein by reference thereto.

The chains behind the UniProt entries cited, without tags or fusion partners.
UniProt P53610, whole entry: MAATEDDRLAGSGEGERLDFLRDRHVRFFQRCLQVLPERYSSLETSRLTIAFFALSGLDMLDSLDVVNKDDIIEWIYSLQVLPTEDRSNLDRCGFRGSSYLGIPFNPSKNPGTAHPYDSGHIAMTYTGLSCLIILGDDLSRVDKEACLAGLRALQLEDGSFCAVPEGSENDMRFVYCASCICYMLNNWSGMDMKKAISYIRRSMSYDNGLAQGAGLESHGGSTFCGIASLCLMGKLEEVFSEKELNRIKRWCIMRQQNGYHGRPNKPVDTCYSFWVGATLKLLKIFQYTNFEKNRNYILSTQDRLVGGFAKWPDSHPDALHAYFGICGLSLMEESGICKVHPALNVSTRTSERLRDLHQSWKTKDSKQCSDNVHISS
UniProt P49356, whole entry: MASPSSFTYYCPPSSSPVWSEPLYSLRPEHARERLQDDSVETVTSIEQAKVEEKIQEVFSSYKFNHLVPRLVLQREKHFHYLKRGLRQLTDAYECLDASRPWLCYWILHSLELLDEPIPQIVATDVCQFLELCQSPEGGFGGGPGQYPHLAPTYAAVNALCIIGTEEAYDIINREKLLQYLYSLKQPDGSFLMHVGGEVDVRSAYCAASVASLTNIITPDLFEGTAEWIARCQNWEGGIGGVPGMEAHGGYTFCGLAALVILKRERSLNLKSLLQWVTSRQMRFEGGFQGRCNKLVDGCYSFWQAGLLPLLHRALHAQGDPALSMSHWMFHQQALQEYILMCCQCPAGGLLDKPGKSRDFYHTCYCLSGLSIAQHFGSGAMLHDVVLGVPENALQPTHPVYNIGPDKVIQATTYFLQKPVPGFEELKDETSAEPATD

For experiment [2], the target named is farnesyl protein transferase (Homo sapiens, UniProt P49354+P49356). Kind of experiment: FPT IC50, inhibition of farnesyl protein transferase, in vitro enzyme assay (procedure of WO 95/10516). To be noted: read-out: FPT C50, several values in a cell are repeat determinations.
A further experiment concerns COS Cell. Kind of experiment: COS Cell IC50 (Cell-Based Assay, procedure of WO 95/10516). To be noted: read-out: COS Cell IC50, several values in a cell are repeat determinations.
In another experiment the test system is Human tumor cells. As to the kind of experiment: Soft Agar Assay (anchorage-independent growth, colony count after MTT staining). Particulars: read-out: Soft Agar IC50; colony outgrowth 10-16 days at 37°C in 0.3% agarose. Here is the method:
Anchorage-independent growth is a characteristic of tumorigenic cell lines. Human tumor cells are suspended in growth medium containing 0.3% agarose and an indicated concentration of a farnesyl transferase inhibitor. The solution is overlayed onto growth medium solidified with 0.6% agarose containing the same concentration of farnesyl transferase inhibitor as the top layer. After the top layer is solidified, plates are incubated for 10-16 days at 37°C under 5% CO2 to allow colony outgrowth. After incubation, the colonies are stained by overlaying the agar with a solution of MTT (3-[4,5-dimethylthiazol-2-yl]-2,5-diphenyltetrazolium bromide, Thiazolyl blue) (1 mg/mL in PBS). Colonies can be counted and the IC50's can be determined.

Certain results were filed several times, with different values. The list is limited to them. The source may hold further records. Values that stand side by side do not match, cause unknown; some may be repeats, others may stem from another dose, organism or construct than stated.

`COCCC(=O)N1CCN(C2c3ccc(Cl)cc3CCc3cc(Br)cnc32)CC1C(=O)NCc1cccnc1` (stereo not drawn): the IC50 in experiment [1] is 13 µM and 79 µM; in experiment [2], 19, 22, 23, 11, 24 nM.

As to `CN(Cc1cccnc1)C(=O)C1CN(C2c3ccc(Cl)cc3CCc3cc(Br)cnc32)CCN1C(=O)CCC1CCCCC1` (stereo not drawn), in the experiment on COS Cell, the IC50 is 1 µM and 100 nM.

For `O=C(NCc1cccnc1)C1CN(C2c3ccc(Cl)cc3CCc3cc(Br)cnc32)CCN1C(=O)NC1CCCC1` (stereo not drawn), in experiment [2], the IC50 was 23 nM, 11 nM, 7.6 nM.

Take `CC(C)CC(=O)N1CCN(C2c3ccc(Cl)cc3CCc3cc(Br)cnc32)CC1C(=O)NCc1cccnc1` (stereo not drawn): the IC50 is 50 nM to 100 nM and 174 nM in the experiment on Human tumor cells; 10 nM to 100 nM and 50 nM in the experiment on COS Cell.

`CCCCC(=O)N1CCN(C2c3ncc(Br)cc3CCc3cc(Cl)cc(Br)c32)CC1C(=O)NCc1cccnc1` (single isomer, unassigned) [256]: the IC50 in experiment [2] is recorded as 6.7 nM, 7.2 nM, 2.9 nM.

Turning to `O=C(NCCc1c[nH]cn1)C1CN(C2c3ccc(Cl)cc3CCc3cc(Br)cnc32)CCN1C(=O)NC1CCCCC1` (stereo not drawn) [Compound 227], the IC50 is 52 nM and 5.4 nM with Human tumor cells; 16 nM and 4 nM with COS Cell.

On to `O=C(NCc1cccnc1)C1CN(C2c3ccc(Cl)cc3CCc3cc(Br)cnc32)CCN1C(=O)CCC1CCCCC1` (stereo not drawn), for which the IC50 in the experiment on COS Cell is 10 nM to 100 nM and 25 nM to 50 nM; in experiment [2], 22, 12, 28, 16 nM.

Consider `CCCCC(=O)N1CCN(C2c3ccc(Cl)cc3CCc3cc(Br)cnc32)CC1C(=O)Nc1cccnc1` (stereo not drawn), for which, in the experiment on COS Cell, the IC50 is 50 nM to 100 nM and 127 nM.

The values are drawn from patent EP0989983B1 (SCHERING CORPORATION, priority 1997, dated 1998).
